Test results from the supplement of paper PMC10849652.
This is one part of the list.

Amino acid sequences for entries named in this document (tags omitted). A change or cut given only in a name is not applied to a line headed by its entry.
UniProt Q8N6S5: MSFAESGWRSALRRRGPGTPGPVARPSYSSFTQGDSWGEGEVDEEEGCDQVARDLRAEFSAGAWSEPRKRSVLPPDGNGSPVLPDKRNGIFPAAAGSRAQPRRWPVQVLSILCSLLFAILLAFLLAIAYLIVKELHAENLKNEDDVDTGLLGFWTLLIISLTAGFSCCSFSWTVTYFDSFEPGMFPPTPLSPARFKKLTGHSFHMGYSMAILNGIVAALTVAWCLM
UniProt Q96DT6: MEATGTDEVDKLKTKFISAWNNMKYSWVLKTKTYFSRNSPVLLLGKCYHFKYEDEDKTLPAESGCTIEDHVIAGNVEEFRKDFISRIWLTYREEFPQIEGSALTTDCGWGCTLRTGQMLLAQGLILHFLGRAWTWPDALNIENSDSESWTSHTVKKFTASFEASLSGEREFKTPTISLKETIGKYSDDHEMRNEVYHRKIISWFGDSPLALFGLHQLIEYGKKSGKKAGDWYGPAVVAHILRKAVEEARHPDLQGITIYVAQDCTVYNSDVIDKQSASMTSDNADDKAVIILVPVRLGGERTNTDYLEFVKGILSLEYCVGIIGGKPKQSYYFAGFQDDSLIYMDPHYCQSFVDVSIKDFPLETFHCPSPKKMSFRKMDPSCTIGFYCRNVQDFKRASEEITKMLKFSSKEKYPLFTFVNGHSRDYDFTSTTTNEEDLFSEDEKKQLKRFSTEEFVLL
UniProt Q9H0F7: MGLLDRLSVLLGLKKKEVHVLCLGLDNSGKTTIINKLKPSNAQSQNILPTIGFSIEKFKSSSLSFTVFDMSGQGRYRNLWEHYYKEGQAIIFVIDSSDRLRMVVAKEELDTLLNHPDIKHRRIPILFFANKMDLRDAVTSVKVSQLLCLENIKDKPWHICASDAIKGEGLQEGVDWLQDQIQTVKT
UniProt Q9NQ11: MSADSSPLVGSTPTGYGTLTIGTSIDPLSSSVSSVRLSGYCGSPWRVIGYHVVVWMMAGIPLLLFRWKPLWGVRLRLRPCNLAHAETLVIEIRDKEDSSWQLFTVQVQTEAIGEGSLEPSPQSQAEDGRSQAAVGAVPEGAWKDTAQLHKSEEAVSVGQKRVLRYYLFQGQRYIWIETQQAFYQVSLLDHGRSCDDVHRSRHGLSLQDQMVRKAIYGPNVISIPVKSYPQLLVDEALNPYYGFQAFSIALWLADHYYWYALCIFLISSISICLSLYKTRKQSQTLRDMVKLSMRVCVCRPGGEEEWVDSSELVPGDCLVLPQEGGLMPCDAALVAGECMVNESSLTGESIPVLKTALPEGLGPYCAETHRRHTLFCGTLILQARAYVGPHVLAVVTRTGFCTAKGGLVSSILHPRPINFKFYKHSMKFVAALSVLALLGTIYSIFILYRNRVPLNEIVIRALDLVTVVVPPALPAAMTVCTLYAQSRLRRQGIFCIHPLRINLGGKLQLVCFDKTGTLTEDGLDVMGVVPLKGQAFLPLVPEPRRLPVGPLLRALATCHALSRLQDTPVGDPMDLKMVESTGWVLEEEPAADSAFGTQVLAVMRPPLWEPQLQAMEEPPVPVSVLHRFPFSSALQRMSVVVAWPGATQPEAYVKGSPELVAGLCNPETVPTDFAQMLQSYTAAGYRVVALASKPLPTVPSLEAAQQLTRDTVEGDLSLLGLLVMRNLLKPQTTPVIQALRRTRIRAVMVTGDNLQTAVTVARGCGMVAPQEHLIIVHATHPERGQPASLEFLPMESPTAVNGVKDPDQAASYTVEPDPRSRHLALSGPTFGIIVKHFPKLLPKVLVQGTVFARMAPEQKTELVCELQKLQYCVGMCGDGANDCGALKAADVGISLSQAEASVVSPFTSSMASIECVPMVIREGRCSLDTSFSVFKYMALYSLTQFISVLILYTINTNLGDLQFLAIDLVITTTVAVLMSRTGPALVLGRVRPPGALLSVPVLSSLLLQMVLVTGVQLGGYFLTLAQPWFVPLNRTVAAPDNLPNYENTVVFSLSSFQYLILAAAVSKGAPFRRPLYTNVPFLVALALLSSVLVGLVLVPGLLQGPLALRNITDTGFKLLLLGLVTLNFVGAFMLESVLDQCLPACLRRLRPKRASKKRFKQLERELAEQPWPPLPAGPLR
UniProt Q6UWY0: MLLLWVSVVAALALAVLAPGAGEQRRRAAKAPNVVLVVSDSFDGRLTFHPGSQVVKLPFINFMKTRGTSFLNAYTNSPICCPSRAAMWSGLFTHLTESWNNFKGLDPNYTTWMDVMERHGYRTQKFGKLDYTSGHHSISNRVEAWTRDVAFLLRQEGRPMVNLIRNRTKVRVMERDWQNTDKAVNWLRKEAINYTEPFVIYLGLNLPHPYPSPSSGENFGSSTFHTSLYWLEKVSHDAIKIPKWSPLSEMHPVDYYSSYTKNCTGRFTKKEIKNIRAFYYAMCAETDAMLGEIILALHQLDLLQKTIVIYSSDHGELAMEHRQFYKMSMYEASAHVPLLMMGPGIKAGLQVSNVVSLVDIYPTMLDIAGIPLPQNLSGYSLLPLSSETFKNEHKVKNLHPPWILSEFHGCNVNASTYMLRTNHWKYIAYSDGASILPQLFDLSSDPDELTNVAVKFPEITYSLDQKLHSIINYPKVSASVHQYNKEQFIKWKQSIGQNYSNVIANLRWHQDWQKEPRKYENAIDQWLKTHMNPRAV
UniProt Q9NVJ2: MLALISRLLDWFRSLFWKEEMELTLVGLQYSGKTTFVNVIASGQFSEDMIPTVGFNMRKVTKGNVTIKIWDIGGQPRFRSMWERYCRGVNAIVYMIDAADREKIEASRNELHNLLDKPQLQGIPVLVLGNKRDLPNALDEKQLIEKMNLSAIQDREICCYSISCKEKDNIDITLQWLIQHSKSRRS
UniProt P56211: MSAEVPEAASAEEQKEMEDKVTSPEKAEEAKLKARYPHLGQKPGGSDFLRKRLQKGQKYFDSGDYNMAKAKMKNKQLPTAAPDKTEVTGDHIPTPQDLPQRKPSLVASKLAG
UniProt Q01814: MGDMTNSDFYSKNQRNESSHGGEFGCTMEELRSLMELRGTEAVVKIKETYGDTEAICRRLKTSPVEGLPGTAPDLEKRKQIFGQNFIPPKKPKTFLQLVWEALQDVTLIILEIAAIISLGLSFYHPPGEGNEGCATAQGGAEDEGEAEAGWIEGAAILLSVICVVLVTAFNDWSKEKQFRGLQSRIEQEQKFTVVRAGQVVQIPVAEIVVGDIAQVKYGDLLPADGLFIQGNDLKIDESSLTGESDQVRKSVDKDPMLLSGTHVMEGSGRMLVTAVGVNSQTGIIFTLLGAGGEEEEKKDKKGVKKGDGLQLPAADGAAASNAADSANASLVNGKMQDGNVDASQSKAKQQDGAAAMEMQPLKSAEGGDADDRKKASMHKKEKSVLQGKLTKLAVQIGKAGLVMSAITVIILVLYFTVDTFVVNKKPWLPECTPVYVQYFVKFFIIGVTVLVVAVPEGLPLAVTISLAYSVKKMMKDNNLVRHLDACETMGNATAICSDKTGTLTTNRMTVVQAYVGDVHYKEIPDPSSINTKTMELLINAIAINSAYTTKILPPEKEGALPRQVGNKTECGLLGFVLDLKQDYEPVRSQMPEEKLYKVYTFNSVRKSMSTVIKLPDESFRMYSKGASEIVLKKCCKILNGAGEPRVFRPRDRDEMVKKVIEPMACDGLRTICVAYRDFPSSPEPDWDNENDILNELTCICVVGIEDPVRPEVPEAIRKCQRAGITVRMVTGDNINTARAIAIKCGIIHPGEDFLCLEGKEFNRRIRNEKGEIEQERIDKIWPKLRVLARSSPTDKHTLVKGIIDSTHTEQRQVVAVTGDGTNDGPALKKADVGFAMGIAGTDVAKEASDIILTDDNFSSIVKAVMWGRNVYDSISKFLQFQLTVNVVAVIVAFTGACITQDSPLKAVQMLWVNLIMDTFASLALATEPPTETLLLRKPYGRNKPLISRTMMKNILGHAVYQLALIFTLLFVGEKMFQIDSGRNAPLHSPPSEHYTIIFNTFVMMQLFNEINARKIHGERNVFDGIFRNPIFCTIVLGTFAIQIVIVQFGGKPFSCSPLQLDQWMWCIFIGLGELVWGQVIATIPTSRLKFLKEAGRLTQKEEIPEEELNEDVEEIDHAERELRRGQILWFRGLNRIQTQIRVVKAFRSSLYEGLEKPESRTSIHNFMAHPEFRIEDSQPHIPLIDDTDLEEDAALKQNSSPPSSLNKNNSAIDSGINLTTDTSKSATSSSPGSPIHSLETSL
UniProt Q66PJ3: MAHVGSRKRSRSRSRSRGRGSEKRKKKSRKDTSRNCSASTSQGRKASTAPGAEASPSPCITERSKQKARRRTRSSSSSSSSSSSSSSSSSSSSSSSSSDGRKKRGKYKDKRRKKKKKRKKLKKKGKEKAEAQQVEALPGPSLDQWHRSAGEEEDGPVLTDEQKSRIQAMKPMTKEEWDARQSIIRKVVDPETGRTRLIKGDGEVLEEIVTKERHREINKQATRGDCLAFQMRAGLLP
UniProt P35670: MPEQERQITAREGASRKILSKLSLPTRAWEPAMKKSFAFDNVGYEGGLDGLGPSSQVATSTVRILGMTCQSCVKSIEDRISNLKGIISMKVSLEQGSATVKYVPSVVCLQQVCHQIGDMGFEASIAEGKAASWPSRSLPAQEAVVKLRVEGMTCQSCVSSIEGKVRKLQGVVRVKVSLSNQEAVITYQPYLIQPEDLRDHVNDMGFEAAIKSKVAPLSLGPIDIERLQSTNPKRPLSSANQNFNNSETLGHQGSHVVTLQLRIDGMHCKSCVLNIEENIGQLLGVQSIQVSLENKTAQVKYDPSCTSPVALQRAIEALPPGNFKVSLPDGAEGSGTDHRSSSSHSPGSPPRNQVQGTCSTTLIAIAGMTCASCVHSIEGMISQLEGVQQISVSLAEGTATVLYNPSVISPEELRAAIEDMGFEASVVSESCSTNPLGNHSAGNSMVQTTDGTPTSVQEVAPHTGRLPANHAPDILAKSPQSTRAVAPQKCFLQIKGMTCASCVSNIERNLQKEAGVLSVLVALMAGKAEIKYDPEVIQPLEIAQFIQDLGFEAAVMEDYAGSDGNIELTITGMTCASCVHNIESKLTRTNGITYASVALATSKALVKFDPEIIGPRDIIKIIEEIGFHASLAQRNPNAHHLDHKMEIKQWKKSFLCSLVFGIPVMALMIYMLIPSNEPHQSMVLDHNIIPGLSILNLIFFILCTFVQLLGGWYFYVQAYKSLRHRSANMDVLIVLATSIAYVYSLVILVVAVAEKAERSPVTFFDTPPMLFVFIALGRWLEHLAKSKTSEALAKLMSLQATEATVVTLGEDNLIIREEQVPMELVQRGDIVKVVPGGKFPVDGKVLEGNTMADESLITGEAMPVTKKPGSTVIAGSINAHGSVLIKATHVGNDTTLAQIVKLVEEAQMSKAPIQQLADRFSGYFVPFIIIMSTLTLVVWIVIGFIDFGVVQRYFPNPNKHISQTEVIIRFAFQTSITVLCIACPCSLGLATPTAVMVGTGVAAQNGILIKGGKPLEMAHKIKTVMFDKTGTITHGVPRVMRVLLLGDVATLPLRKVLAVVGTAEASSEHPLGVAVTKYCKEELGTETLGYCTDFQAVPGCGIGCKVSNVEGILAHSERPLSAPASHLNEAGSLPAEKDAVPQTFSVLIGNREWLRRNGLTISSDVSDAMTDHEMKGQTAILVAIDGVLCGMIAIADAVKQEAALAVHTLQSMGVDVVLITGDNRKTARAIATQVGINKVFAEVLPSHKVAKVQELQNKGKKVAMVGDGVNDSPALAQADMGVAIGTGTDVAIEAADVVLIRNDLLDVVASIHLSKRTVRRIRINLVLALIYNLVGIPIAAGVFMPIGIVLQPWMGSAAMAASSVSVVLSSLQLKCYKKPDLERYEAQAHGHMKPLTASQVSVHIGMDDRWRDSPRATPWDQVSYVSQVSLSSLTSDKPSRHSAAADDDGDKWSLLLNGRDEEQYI
UniProt Q3SXY8: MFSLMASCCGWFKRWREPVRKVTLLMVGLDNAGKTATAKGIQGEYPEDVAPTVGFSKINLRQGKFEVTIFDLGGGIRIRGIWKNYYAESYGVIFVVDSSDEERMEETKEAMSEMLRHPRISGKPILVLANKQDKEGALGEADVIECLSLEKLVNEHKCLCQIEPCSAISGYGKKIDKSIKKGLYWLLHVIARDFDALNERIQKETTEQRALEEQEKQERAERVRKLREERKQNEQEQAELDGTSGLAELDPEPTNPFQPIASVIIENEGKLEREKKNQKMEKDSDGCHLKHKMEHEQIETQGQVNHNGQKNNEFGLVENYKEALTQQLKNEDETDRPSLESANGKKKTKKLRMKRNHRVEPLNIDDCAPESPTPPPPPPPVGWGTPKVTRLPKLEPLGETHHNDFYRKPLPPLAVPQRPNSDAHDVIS
UniProt P56134: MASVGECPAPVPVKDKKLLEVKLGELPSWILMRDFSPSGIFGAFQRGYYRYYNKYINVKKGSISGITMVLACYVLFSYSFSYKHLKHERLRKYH
UniProt Q9H0Y0: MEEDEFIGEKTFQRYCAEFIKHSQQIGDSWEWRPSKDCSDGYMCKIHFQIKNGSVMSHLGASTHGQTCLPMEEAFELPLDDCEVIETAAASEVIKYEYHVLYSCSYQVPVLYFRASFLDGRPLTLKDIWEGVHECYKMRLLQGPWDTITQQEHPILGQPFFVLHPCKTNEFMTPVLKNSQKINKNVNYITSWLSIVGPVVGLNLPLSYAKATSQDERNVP

How the values were obtained:
Assay in all cases: log2 fold change, soluble protein after heating vs DMSO (PISA); higher = thermal stabilisation; K562 cells, 10 uM, 30 min; active = over 0.2 and 3.5 SD of the protein, either way, in both replicates (recomputed)
[1] = compound: C1=CC=C(C=C1)[C@H](COC2=CC3=C(C=C2)NC(=O)N3)NC(=O)C4=CC=CN(C4=O)CC5=CC(=C(C=C5)F)F
Procedure, shortened: (§1)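 Soluble protein was quantified by TMTpro 16plex LC-MS/MS after channel sums were equalised. It was obtained as the supernatant after 21,000xg for 90 min from pooled aliquots of K562 cells (2×10^6 cells/mL, 10 μM compound, 30 min) heated for 3 min across 48°C-58°C and extracted in PBS with 0.5% NP-40 at 4°C. Thermal stability values are relative to control samples and come from duplicates. They are given as log2 fold changes.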

[2] = compound: CC1=C(SC2=C1C(=N[C@H](C3=NN=C(N32)C)CC(=O)N)C4=CC=C(C=C4)Cl)C
Procedure, shortened: as §1

[3] = compound: CC1=C2C(=CC=C1)N=C(N(C2=O)C3=CC=CC=C3C)CN4C=NC5=C(N=CN=C54)N
Procedure, shortened: as §1

[4] = compound: Cc1sc2c(c1C)C(c1ccc(Cl)cc1)=N[C@@H](CC(=O)OC(C)(C)C)c1nnc(C)n1-2
Procedure, shortened: as §1

[5] = compound: c1ccc([C@@H]2C[C@H]2NC2CCNCC2)cc1
Procedure, shortened: as §1

Measured: log2 fold change

ATP6AP2 (UniProt O75787)
inactive: [1] 0.021 | [2] 0.075 | [3] -0.008 | [4] -0.01 | [5] -0.062

ARL6IP6 (UniProt Q8N6S5)
inactive: [1] -0.003 | [2] 0.113 | [3] 0.08 | [4] 0.164 | [5] 0.118

ARL5A (UniProt Q9Y689)
inactive: [1] -0.002 | [2] 0.06 | [4] -0.005 | [5] -0.04

ATE1 (UniProt O95260)
inactive: [2] -0.085 | [3] 0.225 | [4] -0.028 | [5] -0.023

ATG4C (UniProt Q96DT6)
inactive: [1] -0.247 | [2] 0.058 | [3] 0.049 | [4] -0.344 | [5] -0.142

ARL6 isoform 2 (UniProt Q9H0F7)
inactive: [3] -0.048

ATP5F1B (UniProt H0YI37)
inactive: [1] 0.176 | [3] 0.311

ATP13A2 (UniProt Q9NQ11)
inactive: [1] 0.031 | [2] -0.075 | [3] 0.007 | [4] -0.062 | [5] 0.092

ATP11B (UniProt Q9Y2G3)
inactive: [1] 0.005 | [2] 0.009 | [3] 0.079 | [4] -0.03 | [5] 0.057

ARSK (UniProt Q6UWY0)
inactive: [1] -0.143 | [2] 0.05 | [3] 0.096 | [5] -0.175

ATP6V1C1 (UniProt P21283)
inactive: [1] -0.011 | [2] 0.004 | [3] 0.05 | [4] -0.002 | [5] -0.039

ARL8B (UniProt Q9NVJ2)
inactive: [1] 0.017 | [2] 0 | [3] -0.02 | [4] 0.009 | [5] 0.041

ATAD3A isoform 2 (UniProt Q9NVI7)
inactive: [1] -0.019 | [2] -0.037 | [3] -0.052 | [4] 0.08 | [5] 0.054

ATP2C1 isoform 3 (UniProt P98194)
inactive: [1] -0.076 | [2] 0.03 | [5] -0.057

ASB6 (UniProt Q9NWX5)
inactive: [1] -0.065 | [3] 0.178

ARPP19 (UniProt P56211)
inactive: [1] 0.003 | [2] 0.021 | [3] -0.076 | [4] 0.031 | [5] -0.007

ATG4A (UniProt Q8WYN0)
inactive: [2] 0.017 | [3] -0.12 | [5] 0.036

ATP2B2 (UniProt Q01814)
inactive: [2] 0.421 | [3] 0.386 | [5] -0.207

ASCC2 (UniProt Q9H1I8)
inactive: [2] -0.263 | [3] -0.069 | [5] -0.033

ATG12 (UniProt O94817)
inactive: [1] -0.027 | [2] 0.058 | [3] 0.089 | [4] -0.012 | [5] -0.012

ASS1 (UniProt P00966)
inactive: [1] -0.099 | [2] -0.036 | [3] 0.032 | [4] -0.141 | [5] -0.146

ARL6IP4 (UniProt Q66PJ3)
inactive: [1] 0.036 | [2] 0.027 | [3] 0.009 | [4] -0.016 | [5] -0.011

ARL8A (UniProt Q96BM9)
inactive: [1] 0.047 | [2] 0.035 | [3] 0.032 | [4] 0.011 | [5] -0.034

ATP7B (UniProt P35670)
inactive: [1] 0 | [2] 0.094 | [3] 0.014 | [4] 0.022 | [5] 0.076

ARL13B (UniProt Q3SXY8)
inactive: [1] 0.081 | [3] 0.033 | [4] -0.054

ATP5MF (UniProt P56134)
inactive: [1] 0.01 | [2] -0.028 | [3] 0.056 | [4] 0.01 | [5] 0.022

ATP5F1B (UniProt F8W0P7)
inactive: [1] 0.275 | [4] 0.04

ARPIN isoform 2 (UniProt Q7Z6K5)
inactive: [1] 0.065 | [3] -0.028 | [4] -0.033

Two records drawn at random from the list so far, as already listed:
ATP5F1B (UniProt F8W0P7)
inactive: [1] 0.275 | [4] 0.04

ARPIN isoform 2 (UniProt Q7Z6K5)
inactive: [1] 0.065 | [3] -0.028 | [4] -0.033

(cont.)

ATG10 (UniProt Q9H0Y0)
inactive: [1] 0.101 | [3] 0.251 | [4] -0.217

ATP8B2 isoform 3 (UniProt P98198)
inactive: [3] 0.122

ATP1B2 (UniProt P14415)
inactive: [1] -0.059 | [2] -0.048 | [3] 0.074 | [4] 0.047 | [5] 0.111

ATP5F1E (UniProt P56381)
inactive: [1] 0.042 | [2] -0.011 | [3] -0.071 | [4] 0.023 | [5] 0.048

ATE1 isoform 2 (UniProt O95260)
inactive: [1] 0.026 | [2] 0.111 | [3] 0.01 | [4] 0.044 | [5] -0.064

ARMC8 isoform 6 (UniProt Q8IUR7)
inactive: [1] 0.053 | [3] 0.088

ATF2 (UniProt P15336)
inactive: [1] 0.003 | [2] -0.013 | [3] 0.086 | [4] 0.071 | [5] -0.05

ASXL1 (UniProt Q8IXJ9)
inactive: [1] -0.008 | [2] -0.088 | [4] -0.108 | [5] -0.173
